Assay results from patent publication US11274126B2 (University of Rhode Island Board of Trustees, priority 2016, dated 2022).
Some peptides are written in HELM: one residue between dots, names in brackets for other building blocks, links after the first $.

Assay: general procedure: Fmoc solid-phase peptide synthesis; H-Trp(Boc)-2-chlorotrityl resin (0.78 mmol/g); HBTU; DIC/HOAt for cyclization
Settings: whole synthesis, scale 0.3 mmol

Row | Substance | final HPLC purity [%]
1 | PEPTIDE1{W.E.W.E.W.E.W.E.W.C}$PEPTIDE1,PEPTIDE1,1:R1-10:R2$$$V2.0 | 99
2 | l(CW(EW)4) (CWEWEWEWEW) | 99

Same assay, conditions: whole synthesis, scale of the general procedure 0.3 mmol

Row | Substance | final HPLC purity [%]
3 | c[(WE)3WC] (WEWEWEWC; cyclic) | 99
4 | PEPTIDE1{L.E.L.E.L.E.L.E.W.C}$PEPTIDE1,PEPTIDE1,1:R1-10:R2$$$V2.0 | 95
5 | c[(WE)5WC] (WEWEWEWEWEWC; cyclic) | 99
6 | PEPTIDE1{R.R.R.R.W.W.W.W.W.C}$PEPTIDE1,PEPTIDE1,1:R1-10:R2$$$V2.0 | 99
7 | PEPTIDE1{E.E.E.E.W.W.W.W.W.C}$PEPTIDE1,PEPTIDE1,1:R1-10:R2$$$V2.0 | 99
